For part of these data: Negatives hold for the conditions tested. For part of these data: At least one verdict was read from the data and is not stated in words by the source. For part of these data: Where a protein sequence is shown, tags need not be part of it. For part of these data: Weaker means in comparison with the reference protein, sequence or condition of that experiment. For part of these data: The exact form of at least one protein or probe is not confirmed.

Protein sequences, listed by entry. Tags and fused reporters are not part of them. Lines headed by an entry give the natural chain unless they say otherwise; changes in a name come on top.
UniProt Q8NQ97: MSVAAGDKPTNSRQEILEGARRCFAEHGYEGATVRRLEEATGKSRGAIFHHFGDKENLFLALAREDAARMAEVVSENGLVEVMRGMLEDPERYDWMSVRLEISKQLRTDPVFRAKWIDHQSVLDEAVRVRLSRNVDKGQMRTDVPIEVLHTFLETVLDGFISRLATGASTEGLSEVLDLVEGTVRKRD

One data set deals with T1, IpsA-Strep (Corynebacterium glutamicum ATCC 13032) (UniProt Q8NMF0).
T1 sequence (looked up): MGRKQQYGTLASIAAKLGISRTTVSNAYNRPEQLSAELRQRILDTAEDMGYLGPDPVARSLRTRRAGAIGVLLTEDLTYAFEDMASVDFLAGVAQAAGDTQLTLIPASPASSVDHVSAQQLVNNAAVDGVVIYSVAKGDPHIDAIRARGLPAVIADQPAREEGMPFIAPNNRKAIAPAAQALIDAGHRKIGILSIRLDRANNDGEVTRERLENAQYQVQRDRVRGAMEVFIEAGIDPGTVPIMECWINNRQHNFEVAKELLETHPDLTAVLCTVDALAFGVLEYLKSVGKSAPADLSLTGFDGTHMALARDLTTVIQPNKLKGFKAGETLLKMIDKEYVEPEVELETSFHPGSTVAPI
In words: EMSA. To be noted: EMSA: 50 mM Tris-HCl pH 7.5, 40 mM KCl, 5 mM MgCl2, room temperature, 10 uL, DNA 0.028-1 uM, 10-15% native PAGE; recombinant protein; residues 1-358; protein details: C-terminal STREP-tag. On the technique in general: In EMSA bound probe runs differently from free probe, usually more slowly.
Take “AATGGGGGTAATGCTTGATCGATCAATTGA (double strand) [cg3323-A]”: the binding result was “binds”.

For “AGGTCTGATTTCTGCTGGGAATCCCCACAT (double strand) [cg3323-D]”, the binding result was “no binding”.

Regarding “GCTCACTTCTTGATTGATGCGGTGGCTTTT (double strand) [cg3210 30-mer]”, the binding result is reported as “binds”.

As to “GTTGCTTGATCGATCAGGTCTGATTTCTGC (double strand) [cg3323-C]”, the binding result was “binds”.

Take “TTGAGTGTATTGATCGATCAGGTCTGATTT (double strand) [cg3323 M1]”: the binding result is recorded as “binds more weakly”.

Take “TTGAGTTGCGGTATCGATCAGGTCTGATTT (double strand) [cg3323 M2]”: the binding result is “binds more weakly”.

For the sequence “TTGAGTTGCTTGATCGATCAGTGATGATTT (double strand) [cg3323 M6]”, the binding result is “binds more weakly”.

Another data set has as its system T2, IpsA-His (Corynebacterium glutamicum ATCC 13032).
T2 sequence (looked up): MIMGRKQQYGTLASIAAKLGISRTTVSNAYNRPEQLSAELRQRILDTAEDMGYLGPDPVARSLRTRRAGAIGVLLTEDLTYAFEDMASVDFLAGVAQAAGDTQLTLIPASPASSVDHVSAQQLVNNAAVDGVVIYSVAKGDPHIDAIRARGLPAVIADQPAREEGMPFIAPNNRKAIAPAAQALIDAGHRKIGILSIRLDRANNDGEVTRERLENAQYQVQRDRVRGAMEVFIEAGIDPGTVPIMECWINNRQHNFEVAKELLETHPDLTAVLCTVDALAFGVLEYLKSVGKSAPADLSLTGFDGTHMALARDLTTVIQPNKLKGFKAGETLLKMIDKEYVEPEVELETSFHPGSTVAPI
The data set can be described thus: EMSA. To be noted: EMSA: 50 mM Tris-HCl pH 7.5, 40 mM KCl, 5 mM MgCl2, room temperature, 10 uL, DNA 0.028-1 uM, 10-15% native PAGE; recombinant protein; residues 1-360; protein details: N-terminal His10-tag, TEV site; probe letters rebuilt from the primers and the genome.
For “ATAAGCATCAGAGCCATGCTCGTTACTTTTAATGACTTGCTCATTAGTTTCGTCCATGGACCCTGTAGCCTGCGACGTTAAATTAGCCAGATTTGCTGCCACCTGCGCTGCTGCGGCGTTCTCGTTTGGTGTACCGGAATTCTTCGGCGAAATGCTCATTACATACTCCTTAGCCTCGTAACTGTATTACCTCAAGTGTATCCGGTGGACACGACGCAGTAGTAAAAAATTTAGACCACCCTTGCGAATAAAAACTAATAAATACTGTTCACTATATTTTCGATAATTTATTAAAACTATTCACCCAAAAGTTTTTGTATCAAAATACACATATTTTAATGACTTTAGCTATACTTCTATCTTGTGACTTAAATGAAAGTCACAAACTTTGTTGGGGTTTCTTTAAAGTAAAATACAGAAGTTTCTCTGGCAAAAAACCTCACTACTTTCTACAGAAAGGCGTCTTCCTCATGAAGGCTTCTCAGACCCTCACCCGCAAC (double strand) [cg1918 promoter fragment]”, the binding result is “binds more weakly”.

For “CCAAGAGGATACGTGCGATGAGGAATGCAATTTCCCTGGTAGTTGACATGGTCACTAAAGCTAGAATGAATTAGTTTCCGTGTCAACTATTGGGGTTTCGTCGGAGCTTTCTGGCAAATGTAAAGACCAGCTATTAACGGTCTATTTCCCGAGGTACAGCCCATTTATTCGCCTCAGAAACTGGATCTGGAAGCAGCTCAGCCGGGAAAGTTTGATAAGAAACCGGGCGCATAAATCTCTCGATTGCCAGGGTTCCAACACTTGTCGACTGCGCATTTGAGGTCGCCGGATAAGGGCCTCCATGGATAACCGTGTGCCCAACTTCCACACCCGTTGGCCAGCCGCCGTAAAGAACACGGCCCGCGAGATCCTCCAAGAGGGGGATAAGTTTCGAGACTTCCTGGAAATCATCCTGGGATGCGTGGATCGTGGCTGTTAATTGTCCCTCGAGTGAATTGGCTACTTGGTGGAGTTGATCCGGGGAATCATAACGCACCACCAGC (double strand) [cg0534 promoter fragment]”, the binding result is “binds more weakly”.

Consider “CGTTATTGCTGGCGAAGGCGATGTGGACGCGGTTGTTGCTGCTCGTGGACTGGAAGTTGTTCGCGATGACGGCGCAATTGAAAAGGCTGTCGATGATGCCTTGGCTGCAAACCCAGACATCGTGGAGAAGTACCGCGCTGGCAACACCAAGGTCACCGGCGCCATCGTTGGTGCTGTCATGAAGGCGACCCGCGGTAAGGCTGACCCAGCTCAGGTGAACCAGCTGATCGCAAAGAAGTTGGCTTAAGCTTTTTGCCGTTGAGCTGCTAAAAGTCTCGCATTAAAGGACTGCTTCCCTTCGGGGGAGCATTTCTTTTTAACTAATTACTTGACACGTCAAGTAATTAGGGTCTAGTGTTGTGTTCATGATCAAAGAACTGCTCAACAAGCTCTTCGGAAACAAGAAGGCTTCCCCGGCAATGACACAATCTGAAACCATTTCACACAAGGAGAACAACACAATGACCACTTACACCATCTTCGGCCGCGGCAACATGGGCACCGCAATC (double strand) [cg1421 promoter fragment]”, for which the binding result is on record as “binds more weakly”.

As for “GATTAACAGCGCAGCACCAATGAGCGCTGCGGCGAGTCTTGGTAGCTTCATTTACTCAAGTCAACGCAGGTCAGAGGCACAAGTCAAACTTTATTAACGCTTCTTTATTGATTCAGTGGCTTTGCGCTGTGGCTTTATGATTCCTTTTTCCAAGGCGATAATCTGATCTGCTTGATGTGCTTGATCAAGATCGTGAGTCGCAAGAATAATTGTGGTTCCTTGGTTGCGTTGTTGGTTAATGACATCTTCGATAAGACTTGCCGCGTGGGAGTCCACGGCGGCGAGGGGTTCGTCGAGAAGCAATAAGGGCGCCTGTTGCGCTAAACCTTGCGCTATGAGGGCGCGTTGGCGCTGCCCGCCTGATACTTCGCCGAGGGGGCGGTCGGCGAGGCCGGAGATTTCGAGCCGGTCGAGGCAGCTGTCCACGATGTTGCAATCTGC (double strand) [cg0044 promoter fragment]”, the binding result is “binds”.

For the sequence “GCTCTAACAACCGCCAAAAGAAGAACTAAAACAAACGATTCTCCTGGGAAAATTATCACCGCTCAGCAAGTCACATTTAGACGTCGACGATAGGAACCTCAATATGTTTGATTCAGCAGTTTTTAATGTCGCCTCTTGGATTGAGAAAGATGCCACTAATTGGATTCAAGACCACTCACGGGTGTCTGAGATTCGCAAGCAACGGCCGAGTTAGAACCACTACGTAGGCGTACCCCACCATCACCGCGTCGAAAAGCGCCCTCTCTTAACCCCCGCAAGGGGGTAACTTTTACGCGCACGCGTGCAACGCGCTAGTTTTGAAGGCAGTCCCCACGGGCGCCCGAGCACGGGCTGAGATCGCGCTGATTGCTGCGCGAGCACCGTTTGAACCTGTCCGGTTAGCACCGGCGAAGGAAGAGAGGAATGGTGCAATGACGCCTACCCAAAATGAGATCCACCCG (double strand) [cg1476 (thiC) promoter fragment]”, the binding result is given as “binds more weakly”.

On to “GGAAATCTCCCGAACATCAGAAGTGGCAATCACCTGGTCATTCGATGATGAACGCAGAAAATAAAACGAGGCAGCCGCAATGATCAAAATCAGGACCACGGCCACAATGATTAATTTCTTCGGGGCCAAGGAAAGCGAAGGTGGTAGTGCCACAGTGAGATGGCCCCGAGGATCAGGTAACCCCGGGGCACTCCTTTCATAAGTTCTTACAACAAGTCTGTATCCAAAATGCCAGGGTACGGACATACCATTCACAACACATCAGGGAATCCACCTACTTTGTTTTCCCCTAGAAATCCCCCATTTCATCACTCCCGAATGGGGGTAATGCTTGATCGATCAATTGAGTTGCTTGATCGATCAGGTCTGATTTCTGCTGGGAATCCCCACATTTTGGAACGTAGCGTCGATAAGCGTGCGGCGAAGCTTTTTCGGTCGCGGCCGTTATCTTTTTAAGAGGAGAAATTTTAGATGAGCACGTCCACCATCAGGGTTGCCATT (double strand) [ino1 (cg3323) promoter fragment]”, for which the binding result is reported as “binds”.

Turning to “GGCCAAGGTGGTTAAGTCTTGTTCGGGCAAAGCATCCTCCTTTAAAAAGTGTCGTGACTCACTTTCTACTCTATAAAGTGTTTCAAGTCATTGAGGGTGCCCCCGTTTGTAATTCTTGCAAAGTGGGTATTGTGCACTTTTTGCGAGGATCTATCGAATGAATTGGCAAAACATAACTTTGGGAAAGTACCCCCTATGACGGAAAACTGGATGGATCCTGTGGTTGAACCACAGTCAACGGGAGAGGGGAAATCGGACACTATATGGTTGGAGATCGTGACAACTGACCAAAACAAAAGAAGTCTCAGTGAGCTTGCGGCCAGAATCGTTAGTGAAATCTGTGCACCGTGGGTACTCAACATCGGATTTTTCCTCATCCTGGGCGGCGTAACAGGCGCCTGGACGCTAGGAATTGTGGCGGCAATCGGAACCGGAATCGTTCCGATGATCTTAATTTTGGGCTTGATGAAGCTCGGCAGGGTAGGAAACCACCATGTGACGA (double strand) [cg3195 promoter fragment]”, the binding result is on record as “binds more weakly”.

The next data set has as its target AcnR (UniProt Q8NQ97). The data set can be described thus: EMSA. Conditions: up to 50 mM myo-inositol, no effect; EMSA: 50 mM Tris-HCl pH 7.5, 40 mM KCl, 5 mM MgCl2, room temperature, 10 uL, DNA 0.028-1 uM, 10-15% native PAGE; recombinant protein; probe letters rebuilt from the primers and the genome.
For the sequence “ACATCACGCACGTACCCATTTCGAGCAAATCCGACAAAACCGCTGCCTAGGGACATTAGACACGCTAGCAGGCCAAAATTCCATGACGTTATTGACGCGCCAAGAACCCCAACTTTCCCGCCAGAACGCTTGTACTGTTAGGATAATGAAGACGTAGGGTCCTTTTCCACAGTTCTGTGGAATGAGAATCCGATGTTTTTCTCACGCCGGCTCAGCCGAAGCAGACGCCGTCGCGAAATCTCACCCTAAAAAAGTTAGAATTGGAGCTCACTGTGACTGAAAGCAAGAACTCCTTCAATGCTAAGAGCACCCTTGAAGTTGGCGACAAGTCCTATGACTA (double strand) [acn promoter]”, the binding result is reported as “binds”.

Values taken from article PMC3899939, “IpsA, a novel LacI-type regulator, is required for inositol-derived lipid formation in Corynebacteria and Mycobacteria” (BMC Biology, 2013).
